Reference: publication PMC6428865
Results are given in words; binding and its absence hold for the method and conditions named. Binding seen in cells or lysates may run through a third protein. Where a sequence is shown, tags or fusion partners need not be part of it.

The chains behind the UniProt entries cited, without tags or fusion partners.
UniProt P22147: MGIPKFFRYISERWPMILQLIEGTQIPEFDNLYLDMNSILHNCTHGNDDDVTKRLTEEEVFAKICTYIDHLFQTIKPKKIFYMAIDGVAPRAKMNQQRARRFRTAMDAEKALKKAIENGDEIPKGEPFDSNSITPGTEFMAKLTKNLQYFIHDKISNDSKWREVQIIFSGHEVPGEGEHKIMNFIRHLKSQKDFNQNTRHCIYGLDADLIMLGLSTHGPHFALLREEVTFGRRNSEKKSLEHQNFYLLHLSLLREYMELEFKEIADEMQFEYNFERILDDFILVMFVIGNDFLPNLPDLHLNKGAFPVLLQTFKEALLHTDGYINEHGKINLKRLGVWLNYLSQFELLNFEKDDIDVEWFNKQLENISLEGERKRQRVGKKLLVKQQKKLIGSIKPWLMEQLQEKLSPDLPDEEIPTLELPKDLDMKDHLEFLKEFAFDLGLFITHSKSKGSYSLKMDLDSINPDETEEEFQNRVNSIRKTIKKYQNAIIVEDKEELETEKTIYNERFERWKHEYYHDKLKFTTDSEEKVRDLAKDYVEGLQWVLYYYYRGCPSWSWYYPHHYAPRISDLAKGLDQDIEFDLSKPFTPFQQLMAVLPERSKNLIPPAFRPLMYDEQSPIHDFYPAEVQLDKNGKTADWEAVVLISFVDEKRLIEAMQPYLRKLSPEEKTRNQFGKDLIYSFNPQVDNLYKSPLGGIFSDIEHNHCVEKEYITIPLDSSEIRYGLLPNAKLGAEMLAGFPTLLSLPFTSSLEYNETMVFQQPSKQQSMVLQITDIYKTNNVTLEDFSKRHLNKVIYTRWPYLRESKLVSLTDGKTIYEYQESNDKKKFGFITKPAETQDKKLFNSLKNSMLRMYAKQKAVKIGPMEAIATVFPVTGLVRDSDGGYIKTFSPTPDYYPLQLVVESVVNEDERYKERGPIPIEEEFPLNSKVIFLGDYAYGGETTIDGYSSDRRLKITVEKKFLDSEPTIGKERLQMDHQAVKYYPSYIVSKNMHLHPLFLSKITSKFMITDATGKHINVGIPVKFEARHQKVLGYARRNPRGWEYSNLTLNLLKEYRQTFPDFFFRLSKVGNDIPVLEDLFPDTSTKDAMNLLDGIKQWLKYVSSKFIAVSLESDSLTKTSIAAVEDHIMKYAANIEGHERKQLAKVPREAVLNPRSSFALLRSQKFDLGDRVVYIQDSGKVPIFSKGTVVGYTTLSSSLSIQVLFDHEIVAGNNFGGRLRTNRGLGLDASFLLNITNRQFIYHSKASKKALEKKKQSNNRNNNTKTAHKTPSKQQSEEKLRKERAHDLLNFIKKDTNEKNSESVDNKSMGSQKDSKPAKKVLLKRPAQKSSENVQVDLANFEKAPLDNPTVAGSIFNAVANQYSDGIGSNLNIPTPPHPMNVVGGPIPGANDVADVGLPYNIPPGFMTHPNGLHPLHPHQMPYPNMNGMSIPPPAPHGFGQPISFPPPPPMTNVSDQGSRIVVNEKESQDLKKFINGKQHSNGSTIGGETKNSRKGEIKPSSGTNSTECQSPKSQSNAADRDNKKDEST

Target: T1, eIF4A-GFP (yeast (genomic fusion in the yeast strain)) (UniProt P10081)
T1 sequence: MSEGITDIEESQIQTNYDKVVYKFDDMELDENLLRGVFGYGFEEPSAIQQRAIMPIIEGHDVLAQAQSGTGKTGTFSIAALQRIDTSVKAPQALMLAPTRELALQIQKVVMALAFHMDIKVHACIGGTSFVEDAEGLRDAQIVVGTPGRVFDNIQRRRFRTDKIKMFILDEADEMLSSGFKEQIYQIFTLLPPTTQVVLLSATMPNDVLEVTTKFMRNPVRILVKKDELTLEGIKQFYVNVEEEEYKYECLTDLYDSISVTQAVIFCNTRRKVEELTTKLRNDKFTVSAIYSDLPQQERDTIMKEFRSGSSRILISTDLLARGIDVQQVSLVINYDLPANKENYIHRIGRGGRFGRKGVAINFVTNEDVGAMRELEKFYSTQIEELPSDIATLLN
Assay: co-IP; GFP-trap_A beads take the genomic GFP fusion from yeast extracts (3 mg total protein) treated or not treated with RNase; 1 h at 4 °C; lysis buffer 50 mM Tris-HCl pH 7.5, 150 mM NaCl, 0.1% NP-40, 1 mM EDTA; washes with 10 mM Tris-HCl pH 7.5, 200 mM NaCl, 0.5 mM EDTA; FLAG-tagged proteins seen by western blot

- binding: no binding
Substance: Xrn1-FLAG (from UniProt P22147 1-1528) (enzyme)
